# At least one structure is not confirmed: it was looked up by name or label, or the drawing left a doubt.
# Tested on: CRP
# Experiment: Study DG-031-201 cross-over trial: Hs-CRP in serum
# Assay type: in vivo, human
# Settings: visits 5, 6 and 7 (2-4 weeks after the end of therapy)
# Protocol: Patients who met the study eligebility criteria were enrolled and randomized into 3 different dose-level groups: (1) 64 patients on 250 mg/day therapy with DG-031 (250 mg q.d.), vs placebo; (2) 64 patients on 500 mg/day therapy with DG-031 (250 mg b.i.d.) vs placebo; and (3) 63 patients on 750 mg/day therapy with DG-031 (250 mg t.i.d.) vs placebo. […] All patients received 3 tablets per day. Treatment periods, 4 weeks in duration each, were separated by a 2-week washout period. The placebo tablets were identical in shape, color, form and taste to the active tablets except that they contained no active drug ingredients. Treatment with DG-031 or placebo was in addition to the subject's standard care, including all medications and treatment plan as prescribed by the subject's cardiologist prior to enrolment. A total of 191 subjects were enrolled, with 172 completing all 8 visits or 8 patients short of the target of 180 patients. […]
# All data were analyzed according to a pre-established statistical analysis plan (SAP) and by intention-to-treat (ITT). […] The difference between DG-031 and placebo treatment was the primary outcome, assessed separately for each of the biomarkers. […]
smiles,measurement,value
"O=C(O)[C@@H](c1ccc(OCc2ccc3ccccc3n2)cc1)C1CCCC1 [DG-031, (R)-(+)-alpha-cyclopentyl-4-(2-quinolinylmethoxy)-Benzeneacetic acid]",CRP after end of therapy (FIG. 2),continuing and persistent reduction in CRP

# Source: US20060257481A1, “Sustained release formulation and dosing schedule of leukotriene synthesis inhibitor for human therapy” (deCODE Genetics ehf., priority 2005, published 2006)
